In PubChem BioAssay AID504847 (National Center for Advancing Translational Sciences (NCATS), 2011):
Screen size: about 400,000 compounds; about 3,700 (0.93%) were called active. The inconclusive results got no clear call from the source; some entries with a clear call stand among them for comparison. The call rests on the fitted dose curve; in most records, active means well fitted inhibition curve with a large enough effect; inconclusive means small, poorly fitted or top-dose-only effect, or another doubt; inactive means no such curve, though single readings can be large or run the other way. Potencies beside an inconclusive call are fits to weak or partial responses and may not hold up.

Protein sequences, listed by entry. Tags and fused reporters are not part of them. Lines headed by an entry give the natural chain unless they say otherwise; changes in a name come on top.
UniProt P11473: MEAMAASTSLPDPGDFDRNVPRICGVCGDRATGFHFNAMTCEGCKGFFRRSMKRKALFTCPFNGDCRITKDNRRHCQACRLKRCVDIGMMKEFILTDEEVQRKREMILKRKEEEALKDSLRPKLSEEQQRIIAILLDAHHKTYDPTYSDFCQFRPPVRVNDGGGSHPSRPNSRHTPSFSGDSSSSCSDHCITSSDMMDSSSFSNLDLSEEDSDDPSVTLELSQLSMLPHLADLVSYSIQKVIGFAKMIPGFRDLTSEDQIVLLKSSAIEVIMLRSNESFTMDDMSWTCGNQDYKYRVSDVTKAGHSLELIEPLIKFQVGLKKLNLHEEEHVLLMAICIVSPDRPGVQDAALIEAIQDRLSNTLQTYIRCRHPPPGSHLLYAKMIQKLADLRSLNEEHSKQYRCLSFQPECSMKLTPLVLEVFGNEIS

The molecules below were run against Vitamin D3 receptor (Homo sapiens) (UniProt P11473) (assay: Inhibitors of the vitamin D receptor (VDR): qHTS). Conditions: VDR-SRC2-3 peptide fluorescence polarization, 2 h; max response, negative = inhibition: stronger effect = lower value.
Procedure, shortened: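 After 23 nl compound addition and a short centrifugation, plates sat for 2 hours at ambient temperature; polarization of fluorescence then indicated loss of VDR binding to peptide SRC2-3.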
On the % scale 0 is the no-effect control and ±100 the full control effect; potency means the concentration at half of the fitted maximal effect.

| Compound | Potency | max response, negative = inhibition |
| --- | --- | --- |
| Cc1nc(-c2ccccn2)nc(SCC(=O)c2ccc(F)cc2)c1Cl | inconclusive: 3.55 µM [inhibitor, full curve] | – |
| COc1ccccc1NS(=O)(=O)c1cc(NC(=O)c2ccncc2)ccc1N1CCCC1 | inconclusive: 70.8 µM [inhibitor, partial curve, poor fit] | – |
| O=C1CN(C(=O)CSc2nnnn2C2CC2)c2ccccc2N1 | inconclusive: 39.8 µM [inhibitor, single point] | – |
| Cc1nn(-c2nccs2)c2c1C(=O)CC(C)(C)C2Br (configuration not stated) | – | inactive: -23.5% |
| CCc1noc(C)c1C(=O)Nc1nc(-c2ccc(Cl)cc2Cl)cs1 | – | inactive: -0.088% |
| COc1ccc(N2Cc3ccccc3C2=NC(=O)c2cncc(Br)c2)cc1 | – | inactive: -11.5% |
| CCOC(=O)N1CCN(CCC(=O)c2ccc(OC)cc2)CC1 | inconclusive: 39.8 µM [inhibitor, partial curve, poor fit] | – |
| Cc1ccc(-c2nnc(NC(=O)c3ccc([N+](=O)[O-])o3)o2)c(C)c1 | inconclusive: 10 µM [inhibitor, full curve] | – |
| Cc1ccccc1Cn1nc(C)c(NC(=O)c2cc(-c3ccco3)on2)c1C | – | inactive: 3.34% |
| Cc1cc(C)nc(OC(C(=O)O)C(OCCc2ccccc2)(c2ccc(F)cc2)c2ccc(F)cc2)n1 (configuration not stated) | inconclusive: 56.2 µM [inhibitor, partial curve, poor fit] | – |
| O=C(c1ccsc1)N1CCCC(N2CCN(c3cccc(C(F)(F)F)c3)CC2)C1 (configuration not stated) | – | inactive: -5.68% |
| CCOC(=O)C1=CN(Cc2ccco2)S(=O)(=O)N(C)C1c1ccc(F)c(Cl)c1 (configuration not stated) | inconclusive: 89.1 µM [inhibitor, single point] | – |
| CC(CCc1ccccc1)NS(=O)(=O)c1ccc(Cl)c(C(=O)O)c1 (configuration not stated) | inconclusive: 89.1 µM [inhibitor, single point] | – |
| FC(F)Oc1ccc(NC(=S)NNc2ccnc3cc(Cl)ccc23)cc1 | active: 35.5 µM | – |
| Oc1c(Br)cc(Br)cc1C=Nc1cccc2ncccc12 | inconclusive: 79.4 µM [inhibitor, single point] | – |
| CC1=Nc2ccccc2/C1=C/c1nc(-c2ccc(C)s2)oc1O | – | inactive: -11.6% |
| CCOC(=O)Cc1csc(Nc2ccc(Cl)cc2)n1 | inconclusive: 100 µM [inhibitor, single point] | – |
| COc1cc(/C=C2\SC(=Nc3ccccc3)N(Cc3ccco3)C2=O)ccc1OC(C)C(=O)O (configuration not stated) | inconclusive: 2.51 µM [inhibitor, full curve] | – |
| C[C@H](NC(=O)[C@@H]1CSC2c3ccccc3C(=O)N21)C(=O)NCCc1ccc(F)cc1 (some centres not stated) | inconclusive: 28.2 µM [inhibitor, partial curve, poor fit] | – |
| CCC(c1nnnn1Cc1ccco1)N1CCN(c2cc(Cl)ccc2C)CC1 (configuration not stated) | inconclusive: 56.2 µM [inhibitor, partial curve, poor fit] | – |
| CC(NCc1cc(Br)ccc1OCC(N)=O)C12CC3CC(CC(C3)C1)C2 (configuration not stated) | inconclusive: 35.5 µM [inhibitor, partial curve, poor fit] | – |

| Compound | Potency | max response, negative = inhibition |
| --- | --- | --- |
| COc1ccccc1N=c1oc2cc(O)ccc2cc1C(=O)NCC1CCCO1 (configuration not stated) | – | inactive: 8.17% |
| CCN(CC)c1ccc(NC(=S)NC(=O)c2cccs2)cc1 | inconclusive: 89.1 µM [inhibitor, single point] | – |
| COc1ccccc1-c1ccc(/C=C2/C=C(C)OC2=O)o1 | inconclusive: 79.4 µM [inhibitor, single point] | – |
| Clc1ccc(-c2nn3c(C4COc5ccccc5O4)nnc3s2)cc1 (configuration not stated) | active: 79.4 µM | – |
| FC(F)(F)c1ccccc1-c1cncnc1NCc1ccccc1 | inconclusive: 89.1 µM [inhibitor, single point] | – |
| O=C1CN(c2ccccc2)C(=S)N1C(=O)c1ccc(Br)cc1 | inconclusive: 56.2 µM [inhibitor, partial curve, poor fit] | – |
| O=C(NC(=S)N(Cc1ccccc1)c1ccccn1)C1CCCCC1 | inconclusive: 89.1 µM [inhibitor, single point] | – |
| CCc1cc2ccc(C)cc2nc1SCC(=O)N1CCN(C(=O)c2ccco2)CC1 | active: 79.4 µM | – |
| COc1cc(/C=C/C(=O)OCC(=O)c2ccc3c(c2)NC(=O)CO3)ccc1OC(F)F | inconclusive: 79.4 µM [inhibitor, partial curve] | – |
| COc1ccc(C2CC(=O)N3CN(C4CCCCC4)CSC3=C2C#N)c(OC)c1 (configuration not stated) | inconclusive: 56.2 µM [inhibitor, partial curve, poor fit] | – |
| Cn1c(SCC(=O)Nc2cccc(F)c2)nnc1-c1cc2ccccc2o1 | inconclusive: 79.4 µM [inhibitor, partial curve, poor fit] | – |
| CC1CN(C(=O)c2ccc(OC3CCN(Cc4ccccn4)CC3)cc2)CCN1C (configuration not stated) | inconclusive: 79.4 µM [inhibitor, single point] | – |
| Oc1c(C(c2ccccn2)N2CCOCC2)ccc2cccnc12 (configuration not stated) | active: 17.8 µM | – |
| Nc1cccc2c1C(=O)N(C(=O)/C=C/c1cccc(F)c1)C2=O | active: 39.8 µM | – |
| CCCCCc1cc(=O)oc2c(C(CCN3CCCCC3)c3ccc(OC)cc3)c(OC)cc(OC)c12 (configuration not stated) | inconclusive: 89.1 µM [inhibitor, partial curve, poor fit] | – |
| CCOC(=O)C1(CC2CCCCO2)CCN(C(=O)Nc2ccc(SC)cc2)CC1 (configuration not stated) | – | inactive: 10.5% |
| Cc1cc(C)c2sc(C)[n+](CCCS(=O)(=O)[O-])c2c1 | inconclusive: 39.8 µM [inhibitor, partial curve, poor fit] | – |
| COc1ccc(-c2ccc(SCC(=O)NCC3CCCO3)nn2)cc1OC (configuration not stated) | inconclusive: 79.4 µM [inhibitor, partial curve, poor fit] | – |
| CC(=O)Nc1sc(N/N=C/c2ccc(C)cc2)nc1-c1ccc(C)cc1 | inconclusive: 22.4 µM [inhibitor, full curve, poor fit] | – |
| Cn1c(=O)oc2cc(S(=O)(=O)CCC(=O)N3CCN(c4cccc(Cl)c4)CC3)ccc21 | – | inactive: 15.1% |
| CCOC(=O)c1c(NC(C)=O)sc2c1CCC(C=NCCCN(CC)CC)=C2Sc1ccccc1 | inconclusive: 56.2 µM [inhibitor, partial curve, poor fit] | – |

Individual results from the results shown:
Value for CCN(CC)c1ccc(NC(=S)NC(=O)c2cccs2)cc1 under Potency: inconclusive: 89.1 µM [inhibitor, single point]
Value for CC1CN(C(=O)c2ccc(OC3CCN(Cc4ccccn4)CC3)cc2)CCN1C (configuration not stated) under Potency: inconclusive: 79.4 µM [inhibitor, single point]
Value for O=C1CN(c2ccccc2)C(=S)N1C(=O)c1ccc(Br)cc1 under Potency: inconclusive: 56.2 µM [inhibitor, partial curve, poor fit]
